# Laboratory results reported in PMC7862700.
# This is a selection; strong and weak results do not stand in their true shares. For part of these data: At the low end of the ranking the order means little. Some of the results follow. For part of these data: The source does not settle which construct or isoform was used.
# Experiments:
# Experiment in all cases: DAPPL (digital affinity profiling via proximity ligation, sequencing)
# Settings in all cases: 10 mM Tris-HCl pH 7.5, 50 mM NaCl, 1 mM DTT, 4% glycerol, room temperature, 30 min; GST-TFs on glutathione beads, 16-mer random dsDNA library, 0.1% …; high values mean tight binding; double strand, one strand shown; scale: fold enrichment (6-mer frequency, TF over GST control)
# [1] = biological target: T1, GABPA (UniProt Q06546)
# T1 sequence: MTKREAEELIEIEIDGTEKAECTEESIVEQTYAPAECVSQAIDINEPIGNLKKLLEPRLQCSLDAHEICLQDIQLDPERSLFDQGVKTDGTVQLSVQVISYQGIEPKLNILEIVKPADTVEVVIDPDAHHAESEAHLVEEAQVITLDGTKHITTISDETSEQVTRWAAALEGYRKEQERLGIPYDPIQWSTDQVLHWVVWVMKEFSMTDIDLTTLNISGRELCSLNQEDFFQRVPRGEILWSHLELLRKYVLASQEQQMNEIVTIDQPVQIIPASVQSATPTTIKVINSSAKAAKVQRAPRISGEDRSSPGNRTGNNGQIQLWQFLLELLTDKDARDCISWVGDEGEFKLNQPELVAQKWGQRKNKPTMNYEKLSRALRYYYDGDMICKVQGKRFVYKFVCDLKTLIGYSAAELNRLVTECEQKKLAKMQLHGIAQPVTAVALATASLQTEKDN
# [2] = biological target: T2, ETS1 (UniProt P14921)
# T2 sequence: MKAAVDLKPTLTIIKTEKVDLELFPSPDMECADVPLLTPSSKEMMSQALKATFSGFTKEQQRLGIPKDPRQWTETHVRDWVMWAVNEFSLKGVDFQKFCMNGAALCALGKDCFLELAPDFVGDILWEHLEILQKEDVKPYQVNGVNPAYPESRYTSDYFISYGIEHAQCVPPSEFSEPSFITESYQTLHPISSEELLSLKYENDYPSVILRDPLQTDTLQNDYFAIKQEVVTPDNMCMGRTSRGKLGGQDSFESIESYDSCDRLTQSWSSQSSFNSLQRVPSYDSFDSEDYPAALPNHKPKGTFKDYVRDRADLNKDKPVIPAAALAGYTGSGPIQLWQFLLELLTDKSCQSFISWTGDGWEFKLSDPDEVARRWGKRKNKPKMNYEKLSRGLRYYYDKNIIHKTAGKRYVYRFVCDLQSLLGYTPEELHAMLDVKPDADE
# [3] = biological target: T3, SPDEF (UniProt O95238)
# T3 sequence: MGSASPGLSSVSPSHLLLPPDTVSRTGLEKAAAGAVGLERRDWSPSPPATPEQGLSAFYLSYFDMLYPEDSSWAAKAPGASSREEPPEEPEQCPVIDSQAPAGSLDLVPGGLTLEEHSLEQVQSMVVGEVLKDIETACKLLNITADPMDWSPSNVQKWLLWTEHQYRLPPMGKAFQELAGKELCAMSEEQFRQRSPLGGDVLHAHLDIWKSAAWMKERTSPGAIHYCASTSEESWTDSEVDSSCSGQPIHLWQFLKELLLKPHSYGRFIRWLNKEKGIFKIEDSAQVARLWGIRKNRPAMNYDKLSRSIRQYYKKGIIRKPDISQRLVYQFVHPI
Sequence,binding signal [1],binding signal [2],binding signal [3]
TGGAGC,0.597,0.601,0.569
GAAGAG,0.935,0.837,0.81
GCGTGC,0.827,0.882,0.733
GGAACG,0.608,0.611,0.556
GTCAAG,0.776,0.768,0.81
GGCTGG,0.722,0.733,0.715
